# Data as given in PubChem BioAssay AID1508588 (Peter MacCallum Cancer Centre, 2020).
# Purpose: 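Which gene losses make BRAF-mutant melanoma cells more responsive to vemurafenib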 (primary screen)
# System: human WM266.4 melanoma cells (BRAF V600 mutant)
# Knock-down reagent: siRNA pool against human genes, 40 nM
# Timing: 96 h from transfection to read-out
# Treatment: vemurafenib 300 nM (about IC25), added 48 h after transfection, for 48 h; comparison arm got DMSO vehicle only
# Read-out: 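Ratios to non-targeting siRNA for cell gain, counted as DAPI nuclei after minus before drug and averaged over two replicates, and for absorbance-read medium lactate per cell; both binned into fold-change classes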
# Scale: cell gain with vemurafenib: higher = more cell gain than with non-targeting siRNA; lactate per cell with vemurafenib: higher = more lactate made per cell
# Hit rule: 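a knock-down counts as enhancing when its fold-change classes with vehicle and with vemurafenib, taken together, show a stronger drug effect on cell gain or lactate per cell; exact class pairs not stated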
# Meaning of the calls: active = enhances vemurafenib effect; inactive = no enhancement seen
# In all, the deposit lists about 18,000 reagents; below is a random part of them. 790 of them (4.4%) were called active. 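Calls rest on a combination of fold-change classes in drug and vehicle arms, not all shown here.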 The numbers tell different reagents against one gene apart. No sequences are given here.
Target gene,pool no.,cell gain with vemurafenib,lactate per cell with vemurafenib,activity call
RBM4,1,0.66,1.08,inactive
MEOX2,1,0.57,0.56,inactive
SLTM,1,1.11,0.57,inactive
MRPS31,1,1.13,0.82,inactive
SLC44A1,1,0.29,1.18,inactive
CAPZA1,1,0.83,0.52,inactive
PDGFB,1,0.83,0.97,inactive
IPO11,1,0.09,3.83,inactive
B4GALT6,1,0.76,0.62,inactive
RPL26L1,1,0.3,2.4,inactive
UQCC2,1,0.87,2.12,inactive
EPC2,1,0.3,0.26,active
CLSTN2,1,1.45,0.64,inactive
POLE4,1,0.63,0.7,inactive

Next part; the last 2 above are carried over.
Target gene,pool no.,cell gain with vemurafenib,lactate per cell with vemurafenib,activity call
CLSTN2,1,1.45,0.64,inactive
POLE4,1,0.63,0.7,inactive
SERPINB10,1,0.58,1.66,inactive
SLC25A48,1,0.25,1.29,inactive
TTBK2,1,0.28,1.79,inactive
ENAM,1,0.9,0.61,inactive
KCNQ1,1,0.57,0.74,inactive
RGS2,1,-0.07,-0.3,active
TFIP11,1,0.08,3.62,inactive
INTS8,1,0.53,1.17,inactive
KRT25,1,0.55,0.88,inactive
NUP85,1,0.81,0.94,inactive
PSMD11,1,0.18,1,inactive
CA6,1,0.55,1.03,inactive
HAMP,1,0.78,1.98,inactive
DCTN5,1,0.41,1.72,inactive
AK4,1,0.96,0.51,inactive
AK4,2,0.81,0.46,active
MIB1,1,0.3,1.42,inactive
MTA3,1,0.97,0.38,inactive
DDA1,1,0.82,0.64,inactive
KRABD3,1,0.37,1.7,inactive
